Literature values as cited in patent US20120207744A1, “REPROGRAMMING COMPOSITIONS AND METHODS OF USING THE SAME” (priority 2009, published 2012).
Counter-ions that a name gives are not always drawn. Some results were stated once for a whole list of compounds, not compound by compound. For at least one compound, name, drawing or mass did not settle the structure.

Test system: human ESCs
Details: defined medium, such as TeSR medium, on Matrigel-coated culture dishes

| SMILES | cloning efficiency [%] |
| --- | --- |
| Cl.Cl.NCCNS(=O)(=O)c1cccc2cnccc12 [H-9, N-(2-aminoethyl)-5-isoquinolinesulphonamide dihydrochloride] | > 1 |
| CNCCNS(=O)(=O)c1cccc2cnccc12.Cl.Cl [H-8, N-2-(methylamino)ethyl-5-isoquinoline-sulfonamide dihydrochloride] | > 1 |
| CC1CNCCN1S(=O)(=O)c1cccc2cnccc12 (stereo not shown) [H-7, 1-(5-isoquinolinesulfonyl)-2-methylpiperazine] | > 1 |
| Cl.Cl.O=S(=O)(NCCNCC=Cc1ccc(Br)cc1)c1cccc2cnccc12 [H-89] | > 1 |
| Cc1cncc2cccc(S(=O)(=O)N3CCCN(C(=O)CN)CC3C)c12 (stereo in doubt) [glycyl H-1152, (S)-(+)-2-Methyl-4-glycyl-1-(4-methylisoquinolinyl-5-sulfonyl)homopiperaz-ine dihydrochloride] | > 1 |
| Cl.O=S(=O)(c1cccc2cnccc12)N1CCNCC1 [HA-100, 1-(5-isoquinolinesulfonyl)piperazine hydrochloride] | > 1 |
| CC1CN(S(=O)(=O)c2cccc3cnccc23)CCN1 (stereo not shown) [iso H-7, 1-(5-isoquinolinesulfonyl)-3-methylpiperazine] | > 1 |
| Cl.N=C(N)NCCNS(=O)(=O)c1cccc2cnccc12 [HA-1004, N-(2-guanidinoethyl)-5-isoquinolinesulfonamide hydrochloride] | > 1 |
| C[C@@H](N)[C@H]1CC[C@H](C(=O)Nc2ccncc2)CC1.Cl.Cl [Y-27632, (+)-(R)-trans-4-(1-aminoethyl)-N-(4-pyridyl)cyclohexanecarboxamide dihydrochloride] | > 1 |
| Cl.Cl.O=S(=O)(c1cccc2cnccc12)N1CCCNCC1 [HA-1077, 1-(5-isoquinolinesulfonyl)homopiperazine dihydrochloride] | > 1 |
